Results deposited as PubChem BioAssay AID1259254 (NCATS, 2017)

Aim: 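Gene knock-downs that lead to re-replication, shown by excess G2 DNA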 (primary screen)
Cell system: human HCT116 colorectal cancer cells
Reagent: single siRNA against human genes
Duration: 3 days
Measured: 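Nuclei stained with Hoechst and imaged; cell-cycle phase assigned by DNA content; G2 share scaled per plate, non-targeting siRNA 0%, GMNN siRNA 100%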
Scale: G2 robust z-score and G2 cells, % of GMNN control: higher = more G2 cells, more excess DNA replication; raw share of cells in G2: higher = larger share of cells with G2 DNA content
Call rule: 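An siRNA counts as active if its G2 robust z-score lies at least 5 MADs above the screen median; here such calls match roughly 38% of GMNN control or more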
Shown is a random part of about 59,000 reagents tested. In the full data, about 1,550 (2.6%) are marked active. 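G2 share is only a proxy for re-replication; each gene was hit by three separate siRNAs, and active genes were retested.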 Raw values are not corrected between plates. Reagents against one gene are numbered here. Not given: the amount of reagent.

gene symbol | siRNA no. | G2 robust z-score | G2 cells, % of GMNN control | raw share of cells in G2 (%) | activity call
PPP1R3B | 1 | 3.48 | 27.4 | 13.7 | inactive
PPP1R3B | 2 | -0.499 | -0.544 | 4.14 | inactive
PPP1R3B | 3 | -0.474 | -0.368 | 3.39 | inactive
GPR52 | 1 | 1.49 | 13.5 | 10.7 | inactive
GPR52 | 2 | -0.429 | -0.0494 | 4.5 | inactive
GPR52 | 3 | 1.06 | 10.4 | 6.46 | inactive
SNRPE | 1 | 3.68 | 28.8 | 15.4 | inactive
SNRPE | 2 | 3.07 | 24.6 | 13 | inactive
SNRPE | 3 | 0.794 | 8.55 | 6.79 | inactive
GON4L | 1 | 1.6 | 14.2 | 7.81 | inactive
GON4L | 2 | 0.236 | 4.63 | 8 | inactive
GON4L | 3 | -0.0691 | 2.48 | 4.41 | inactive
TMCO6 | 1 | 0.406 | 5.83 | 8.98 | inactive
TMCO6 | 2 | 0.381 | 5.64 | 6.46 | inactive
TMCO6 | 3 | 5.35 | 40.6 | 21.3 | active
EIPR1 | 1 | 1.12 | 10.8 | 9.94 | inactive
EIPR1 | 2 | 4.54 | 34.9 | 17.7 | inactive
EIPR1 | 3 | 0.736 | 8.14 | 6.23 | inactive
NWD2 | 1 | 0.518 | 6.61 | 6.95 | inactive
NWD2 | 2 | -0.164 | 1.82 | 5.33 | inactive
NWD2 | 3 | 0.062 | 3.4 | 4.11 | inactive
MORN5 | 1 | 0.908 | 9.36 | 6.97 | inactive
MORN5 | 2 | -0.208 | 1.5 | 3.64 | inactive
MORN5 | 3 | -0.518 | -0.678 | 2.98 | inactive
FSCN3 | 1 | -0.0518 | 2.6 | 4.85 | inactive
FSCN3 | 2 | -0.134 | 2.03 | 5.32 | inactive
FSCN3 | 3 | 0.118 | 3.79 | 4.45 | inactive
RDH10 | 1 | -1.17 | -5.3 | 3.43 | inactive
RDH10 | 2 | 3.07 | 24.6 | 13.7 | inactive
RDH10 | 3 | -1.31 | -6.26 | 2.07 | inactive

Only “raw share of cells in G2 (%)” (3 entries from above):
NWD2 #1	6.95
NWD2 #2	5.33
NWD2 #3	4.11
